# Results published in PubChem BioAssay AID1487 (National Center for Advancing Translational Sciences (NCATS), 2009).
# This is one part of the list. These are further read-outs of the screen, such as a control signal, another cell line or another target. No call is given for them. Most of these compounds were active or inconclusive in the main read-out, so they are no random draw. Potencies come from curve fits of mixed quality, noted in brackets.
# Experiment: qHTS Assay for Modulators of Lamin A Splicing
# Conditions: HeLa LMNA splicing GFP/RFP minigene ratio, 48 h
# Outline: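 S3 HeLa cells stably expressing lamin A-EGFP splicing minigene plus DsRed2, 600 cells/well, 48 h compound exposure at 37C. Laser-scanning cytometry; analysed as GFP (500-530 nm)/RFP (575-640 nm) total intensity ratio; 0.5% DMSO vehicle.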
# [1] = measured here: GFP splicing reporter channel
# [2] = measured here: RFP viability control channel
Structure (SMILES),AC50 [1],AC50 [2]
CCC1Oc2ccccc2N(CC(=O)NCc2cc(OC)ccc2OC)C1=O (stereo unspecified),"20 µM [rising, partial curve, poor fit]","11.2 µM [rising, partial curve, poor fit]"
O=C(COC(=O)/C=C/C(=O)OCC(=O)NC12CC3CC(CC(C3)C1)C2)NC12CC3CC(CC(C3)C1)C2,"0.01 µM [falling, full curve, poor fit]","0.0112 µM [falling, full curve, poor fit]"
O=C(c1ccc(C(F)(F)F)cc1)C1CCCN(C(=O)CCN2CCCO2)C1 (stereo unspecified),"35.5 µM [falling, single point]",
CC1CCN(c2nnc(N)s2)CC1,"0.0891 µM [rising, full curve, poor fit]",
O=C(Nc1nc2ccccc2n1Cc1ccccc1)c1ccco1,,"12.6 µM [rising, partial curve]"
OCCCCCNc1ncnc2ccccc12,"7.94 µM [rising, partial curve]","8.91 µM [rising, partial curve]"
CC1CCCCN1S(=O)(=O)c1ccc(C(=O)Nc2sccc2C(N)=O)cc1 (stereo unspecified),"35.5 µM [rising, single point]","35.5 µM [rising, single point]"
O=C(NC(=S)Nc1ccc(N2CCOCC2)cc1)c1ccc2c(c1)OCCO2,"2.51 µM [rising, full curve]","10 µM [rising, partial curve]"
CC1CCCN(CC(O)COCc2ccc3c(c2)OCO3)C1 (stereo unspecified),"0.00282 µM [rising, full curve]","0.02 µM [rising, full curve, poor fit]"
O=C(CSc1nccn1-c1cccc(Cl)c1)Nc1cccc2ccccc12,,"15.8 µM [falling, partial curve]"
CN(C)S(=O)(=O)c1cccc(NC(=O)CSc2nc3c(cc2C#N)C(=O)CC(C)(C)C3)c1,,"11.2 µM [rising, partial curve]"
CN(C)CCCNC(=O)COc1ccc(Br)cc1Cl,"8.91 µM [rising, partial curve]",
COc1cccc(C(=O)Nc2cccc(-c3nc4ncccn4c3C)c2)c1,"0.631 µM [rising, single point]",
Cn1c(SC2=CS(=O)(=O)c3ccccc32)nc2ccccc21,"6.31 µM [falling, full curve]","7.08 µM [falling, full curve]"
O=C(NNC(=S)Nc1cccc(C(F)(F)F)c1)c1ccc(Cl)cc1Cl,"1.78 µM [rising, single point]","31.6 µM [rising, single point]"
O=S(=O)(NCC(Nc1ccc(Cl)cc1)c1ccccc1)c1ccc(Cl)cc1 (stereo unspecified),,"14.1 µM [rising, single point]"
Cc1ccc2c(c1)C1(C(=O)N2)N2CCCC2C(C(=O)c2ccc3ccccc3c2)C12C(=O)Nc1ccccc12 (stereo unspecified),"35.5 µM [falling, single point]","8.91 µM [falling, partial curve]"
O=C(CN1CCC(NC(=O)c2ccco2)CC1)Nc1ccccc1[N+](=O)[O-],"0.0158 µM [falling, full curve, poor fit]",
Cc1ccc(-c2nc3c4ccccc4n(CC(=O)NCc4ccc(F)cc4)c(=O)n3n2)cc1,"0.178 µM [rising, full curve, poor fit]",
Cc1cc(C)n(Cc2ccc(Cl)nc2)n1,,"0.02 µM [falling, full curve, poor fit]"
O=C(NCc1ccco1)c1ccc([N+](=O)[O-])o1,,"12.6 µM [rising, single point]"
Cc1cc(-c2ccc(Br)s2)nc(-n2cccc2)n1,"5.62 µM [rising, full curve]","7.94 µM [rising, partial curve]"
N/C(Cc1ccc(Cl)cc1)=N\OC(=O)c1cccc2ccccc12,"15.8 µM [rising, partial curve, poor fit]",
CC(=O)c1cccc(S(=O)(=O)N2CCCC(c3nc(-c4ccc(C)o4)no3)C2)c1 (stereo unspecified),,"11.2 µM [rising, partial curve]"
O=C(N/N=C/c1ccc(Br)o1)/C(=C/c1ccc([N+](=O)[O-])cc1)NC(=O)c1ccccc1,,"1.12 µM [rising, partial curve, poor fit]"
CCC(C)(C)n1nnnc1CN1CCN(c2nc3cc(OC)ccc3cc2C#N)CC1,,"14.1 µM [rising, partial curve]"
C=C(C)c1cccc(C(C)(C)NC(=O)Nc2ccc(Cl)cn2)c1,,"20 µM [rising, partial curve]"

# One compound at a time, as listed above.
# O=C(N/N=C/c1ccc(Br)o1)/C(=C/c1ccc([N+](=O)[O-])cc1)NC(=O)c1ccccc1 as listed: AC50 [2]: 1.12 µM [rising, partial curve, poor fit]
# Cc1ccc2c(c1)C1(C(=O)N2)N2CCCC2C(C(=O)c2ccc3ccccc3c2)C12C(=O)Nc1ccccc12 (stereo unspecified) as listed: AC50 [1]: 35.5 µM [falling, single point]; AC50 [2]: 8.91 µM [falling, partial curve]
# O=S(=O)(NCC(Nc1ccc(Cl)cc1)c1ccccc1)c1ccc(Cl)cc1 (stereo unspecified) as listed: AC50 [2]: 14.1 µM [rising, single point]

# The listing continues.

Structure (SMILES),AC50 [1],AC50 [2]
Cc1ccc(N/C=C2/Sc3ccccc3NC2=O)cc1,"6.31 µM [rising, single point]","3.55 µM [rising, full curve]"
NS(=O)(=O)c1ccc(NC(=S)NCc2ccc(F)cc2)cc1,,"8.91 µM [falling, partial curve, poor fit]"
Cc1cc2c3c(c1C)C1(C(=O)N3C(C)(C)CC2C)C(C#N)=C(N)Oc2cc(O)ccc21 (stereo unspecified),"35.5 µM [rising, single point]",
NC(=S)NNC(=O)[C@@H]1CCCC[C@@H]1C(=O)O,"0.01 µM [falling, full curve, poor fit]","0.01 µM [falling, full curve, poor fit]"
CCOC(=O)c1sc(SCC(=O)Nc2ccc(N(C)C)cc2)nc1N,"0.631 µM [falling, partial curve]","0.501 µM [falling, partial curve]"
CCOC(=O)C1=C(C)N(C)C(=S)NC1c1cccc(Cl)c1Cl (stereo unspecified),"35.5 µM [falling, single point]","11.2 µM [falling, partial curve, poor fit]"
CCc1nc(SCc2ccc(F)cc2)[nH]c(=O)c1C#N,,"17.8 µM [rising, partial curve]"
COC(=O)c1c(C)sc(-c2c(-c3cccc(OC)c3)[nH]c3c2c(=O)[nH]c(=O)n3C)c1O,,"0.501 µM [rising, partial curve, poor fit]"
CCC(C)(C(=O)NC1CCCCC1)N(C(=O)CC1NC(=O)NC1=O)c1c(C)n(C)n(-c2ccccc2)c1=O (stereo unspecified),"0.158 µM [rising, full curve, poor fit]",
COc1cccc(NC(=O)CSc2nnc(Cc3cccs3)n2-c2ccc(C)cc2)c1,"0.708 µM [rising, partial curve]",
COC(=O)c1c(NC(=O)CSc2nnc3ccccn23)sc2c1CCC2,,"20 µM [rising, partial curve]"
CCN1CCN(CC(=O)N2CCCC(C(=O)c3ccc(Oc4ccccc4)cc3)C2)CC1 (stereo unspecified),,"31.6 µM [rising, single point]"
COc1cccc(NC(=O)CN(c2ccc([N+](=O)[O-])cc2)S(=O)(=O)c2ccccc2)c1,,"17.8 µM [rising, single point]"
CCOc1ccc(S(=O)(=O)NCc2ccncc2)cc1,"7.08 µM [rising, partial curve]","0.398 µM [rising, full curve]"
Cc1cc(C)nc(NC(=NCCc2c[nH]c3ccccc23)NC(=O)c2ccco2)n1,"31.6 µM [rising, single point]","22.4 µM [rising, single point]"
O=C(Cc1cccc2ccccc12)Nc1ccccc1C(=O)O,,"10 µM [rising, partial curve]"
COC(=O)c1ccc(-n2c(C)cc(-c3csc(NC(=O)c4ccc(S(=O)(=O)N(C)C)cc4)n3)c2C)cc1,,"6.31 µM [rising, full curve, poor fit]"
Cc1ccc(N2C(=O)N(Cc3ccccc3C)c3ccccc3S2(=O)=O)cc1,"11.2 µM [rising, single point]","17.8 µM [rising, single point]"
CCCN(CCC)C(=O)Cn1ccc(=N)c2ccccc21,"12.6 µM [rising, single point]","2 µM [rising, partial curve, poor fit]"
CCn1c(SCC(=O)N/N=C/c2c[nH]c3ccccc23)nnc1-c1ccc(C(C)(C)C)cc1,"14.1 µM [rising, partial curve]","22.4 µM [rising, partial curve]"
COc1ccc(CNc2cc(C)nc3ncnn23)c(OC)c1,"7.94 µM [rising, partial curve, poor fit]","3.16 µM [rising, full curve]"
Cc1ccc(S(=O)(=O)c2c(Nc3cccc(Cl)c3)sc(C(=O)c3ccc4c(c3)OCO4)c2N)cc1,,"6.31 µM [rising, full curve]"
Cc1ccc(C)c(-n2nnnc2SCC(=O)c2ccc3c(c2)NC(=O)CO3)c1,"12.6 µM [rising, single point]",
COc1ccccc1NC(=O)C1=C(C)NC(SCC(=O)c2ccc(C)cc2)=C(C#N)C1c1ccco1 (stereo unspecified),"10 µM [rising, partial curve, poor fit]","11.2 µM [rising, partial curve]"
CCCCCC(=O)N1CCN(c2ccc(C(C)=O)cc2F)CC1,,"10 µM [rising, partial curve, poor fit]"
O=C(c1cc([N+](=O)[O-])ccc1Cl)N1c2ccccc2Sc2ccccc21,,"35.5 µM [rising, single point]"
Cn1c(C(=O)N2CCCC(C(=O)NCCCc3ccccc3)C2)cc2sccc21 (stereo unspecified),"31.6 µM [rising, single point]","31.6 µM [rising, single point]"
